Screen size: about 31,000 sequences; about 1,400 (4.5%) were called active.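 Rule for the calls: active = median seed-adjusted z-score above 1 or below -1; inactive = the rest.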 The list shows a part of the results.
assay: Novel Modifiers of Survival Motor Neuron (SMN) Protein: Gene Identification via Genome-wide siRNA Screen; conditions: HEK293T SMN2-luciferase reporter, siRNA knockdown, 72 h; actives lie on both sides;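 note: luminescence tracks full-length SMN protein made from the SMN2 reporter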
Procedure, shortened: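 Luciferase signal, proportional to full-length SMN made from an SMN2 cDNA reporter in stable HEK293T cells, was read 72 h after siRNA reverse transfection. Values were expressed as MAD scores after non-targeting-control normalization and log10 conversion; seed analysis flagged off-targets.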

Row | Sequence | median seed-adjusted z-score
1 | GCUGCAACGUGUGCGAGUUTT against ZNF319 | inactive: 0.256
2 | CACCAGACAUCAAAAUCAATT against ATF7 | inactive: 0.903
3 | GCAGGUGCAUGGUCUUCAATT against NR5A1 | inactive: -0.467
4 | GAACCAUUCCUUAUCCCAUTT against SLC19A3 | inactive: -0.0232
5 | GGAUCGUGCAGGUCCUAAATT against VAC14 | inactive: 0.0825
6 | CAGGUAUGGUGAACCGUGATT against YES1 | inactive: -0.508
7 | GGCAUAUUUUGUAACGGGATT against GLP2R | inactive: 0.492
8 | GUAUCGAAUUUACGGAUUATT against RNF139 | inactive: 0.175
9 | CACUCACCCUCCAGACAAATT against TAL2 | inactive: -0.395
10 | GAUGAUCAGCUAUGAAAAATT against ZNF780A | inactive: 0.298
11 | GCAAGGCAGCUGUUCUGAATT against PGLS | inactive: 0.188
12 | GAAAAACUCCAACCAGAUATT against CD4 | inactive: -0.566
13 | GGAGACCACCUAAGUAUAATT against ZNF630 | inactive: -0.533
14 | AAGACAUUUUGAAUCUGGATT against NKX2-3 | inactive: -0.2
15 | CGACCAAGAUUAUGGAAUUTT against ADAMTS17 | inactive: 0.257
16 | GAAUAUUCGUGGGACUGAUTT against ANXA8L2 | inactive: -0.147
17 | GAAAGACCUUUUAUAUGCATT against SP4 | inactive: -0.088
18 | GCAUAUCUCUCGACCACCUTT against NANOS2 | inactive: 0.565
19 | AGAAGACCAUUUGACCAUATT against MAFG | inactive: 0
20 | GCUCAGGUCUCAUUCGACATT against ZNF193 | inactive: 0.276
21 | CUACCAUUGUAUACCUAGATT against LRRIQ1 | inactive: 0
22 | CGAGCUGCACGUUCCUAUATT against IRF7 | inactive: -0.304
23 | CAGUGAAGCGAAACAGUAATT against SNED1 | inactive: 0.148
24 | CCCUGCUCGUCUAUACUUATT against SEMA5A | inactive: -0.443
25 | CACAGGUUAUGAAACAGAATT against COQ6 | inactive: -0.0116
26 | GGAUGCUCCAAGUCUGUCATT against GPR179 | inactive: -0.513
27 | GCAGGACCCAUUACGGCUATT against DPEP1 | inactive: -0.886
28 | CCUCUGGACUGAUGCAGCATT against NEDD9 | inactive: 0
29 | GUCUACGUGUGGAAUGUGATT against DMBX1 | inactive: -0.207
30 | GAAUUGUACCUAUAAGAAUTT against ITGB3 | inactive: 0.456

Rewritten as labelled records: part of the list above
AGAAGACCAUUUGACCAUATT against MAFG
  median seed-adjusted z-score: inactive: 0
GCUCAGGUCUCAUUCGACATT against ZNF193
  median seed-adjusted z-score: inactive: 0.276

From PubChem BioAssay AID1347426 (Functional Genomics Laboratory (NCATS/FGL), 2020)
